Test results from paper doi:10.1101/2022.11.15.516651.
No constants are given. Whether binding was seen depends on the method and setting. Binding seen in cells or lysates may run through a third protein. Some binding calls cover weakened binding; strength is not graded here.

The chains behind the UniProt entries cited, without tags or fusion partners. Where a name states a change or a piece, a line headed by the entry shows the natural chain unless it says otherwise. A line that says so, or that is headed by a name, gives the form on record, which may keep a tag or linker. Residues count along the entry.
FLAG-SLC3A2 WTseq (P08195, residues 66-630): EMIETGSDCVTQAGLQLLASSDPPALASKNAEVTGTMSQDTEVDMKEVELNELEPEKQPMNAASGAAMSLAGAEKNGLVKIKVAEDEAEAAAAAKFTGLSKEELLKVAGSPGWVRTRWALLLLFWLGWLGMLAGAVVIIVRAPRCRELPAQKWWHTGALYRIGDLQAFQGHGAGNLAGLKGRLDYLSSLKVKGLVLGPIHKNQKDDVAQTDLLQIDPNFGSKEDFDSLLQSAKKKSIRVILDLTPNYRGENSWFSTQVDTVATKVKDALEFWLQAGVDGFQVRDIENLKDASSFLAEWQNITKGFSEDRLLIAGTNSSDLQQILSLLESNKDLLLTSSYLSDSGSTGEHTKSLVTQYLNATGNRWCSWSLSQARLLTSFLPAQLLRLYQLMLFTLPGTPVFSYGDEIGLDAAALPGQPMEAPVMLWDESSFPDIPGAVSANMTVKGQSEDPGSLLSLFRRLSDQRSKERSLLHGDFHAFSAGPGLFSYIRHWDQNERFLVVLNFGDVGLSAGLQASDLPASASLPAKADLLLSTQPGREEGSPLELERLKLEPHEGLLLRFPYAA
FLAG-SLC3A2 N365D (P08195, form named): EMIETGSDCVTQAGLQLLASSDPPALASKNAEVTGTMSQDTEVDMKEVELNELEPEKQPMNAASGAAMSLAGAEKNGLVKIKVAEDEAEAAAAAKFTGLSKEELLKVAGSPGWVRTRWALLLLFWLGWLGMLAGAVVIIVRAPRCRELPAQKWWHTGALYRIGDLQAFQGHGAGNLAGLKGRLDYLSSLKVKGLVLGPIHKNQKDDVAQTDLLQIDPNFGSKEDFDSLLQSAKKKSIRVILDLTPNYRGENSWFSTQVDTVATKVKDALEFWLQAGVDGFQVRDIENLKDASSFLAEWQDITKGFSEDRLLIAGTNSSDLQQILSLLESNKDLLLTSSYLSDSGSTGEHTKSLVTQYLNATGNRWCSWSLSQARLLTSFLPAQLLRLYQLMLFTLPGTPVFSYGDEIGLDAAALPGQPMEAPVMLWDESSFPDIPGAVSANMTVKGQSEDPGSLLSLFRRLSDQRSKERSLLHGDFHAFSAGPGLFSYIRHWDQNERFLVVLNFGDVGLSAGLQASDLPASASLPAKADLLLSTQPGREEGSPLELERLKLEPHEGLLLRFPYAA
UniProt P17931: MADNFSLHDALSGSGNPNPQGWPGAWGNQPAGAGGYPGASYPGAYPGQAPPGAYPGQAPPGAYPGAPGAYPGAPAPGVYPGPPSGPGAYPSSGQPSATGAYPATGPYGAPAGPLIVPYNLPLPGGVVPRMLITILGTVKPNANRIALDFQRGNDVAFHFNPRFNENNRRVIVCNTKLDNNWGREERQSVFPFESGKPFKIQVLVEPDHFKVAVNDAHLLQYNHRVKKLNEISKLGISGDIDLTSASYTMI

What was measured:
[1] = molecular target: FLAG-SLC3A2 N365D (human) (UniProt P08195); assay: co-IP
[2] = molecular target: FLAG-SLC3A2 WTseq (human) (UniProt P08195); assay: co-IP

Gal3-488 (from UniProt P17931 1-250)
binding [1]: binds
binding [2]: binds
